Test results as given in PubChem BioAssay AID540256 (National Center for Advancing Translational Sciences (NCATS), 2011).
The whole screen tested about 300,000 compounds, of which about 3,700 (1.2%) were called active. Inconclusive results, whose numbers are uncertain, are shown with a selection of clear calls. Calls come from the whole dose curve; tested in HEK293 cells. Potencies beside an inconclusive call are fits to weak or partial responses and may not hold up.

Assay: qHTS for Inhibitors of binding or entry into cells for Lassa Virus; note: nearly all actives have a fitted effect of over 50% in size
Conditions: Lassa virus pseudotype entry inhibition, cell reporter; activity change, negative = inhibition: at 37.9 µM (top of the series) unless noted
% is set by controls: 0 for no effect and ±100 for the full control effect; potency is the fitted concentration of half-maximal effect.

Question: For `c1cnc2ccc(C(c3nnnn3C3CCCCC3)N3CCN(C4CCCCC4)CC3)cc2c1` (stereo unspecified), which Potency is on record?
Answer: Its Potency is inconclusive: 8.91 µM [inhibitor, partial curve, poor fit].

Question: For `COc1ccc(CN(C(=O)CSc2nnc(-c3ccc(F)cc3)o2)c2ccc(F)cc2)cc1`, which Potency is on record?
Answer: The Potency was inconclusive: 6.51 µM [inhibitor, partial curve].

Question: Which Potency does the source give for `COc1cccc(CNC(=O)c2sc3ncccc3c2-n2c(C)ccc2C)c1OC` here?
Answer: Its Potency is inconclusive: 11.2 µM [inhibitor, single point].

Question: For `CCN=c1scc(-c2cccs2)n1/N=C/c1cc(OC)ccc1O`, which Potency is on record?
Answer: The Potency was inconclusive: 17.8 µM [inhibitor, single point].

Question: With `CN(C)[C@H]1CCN([C@@H]2C[S+](=O)([O-])N[C@@H]2COCc2ccccc2)C1` as the compound, how does the “activity change, negative = inhibition” value read?
Answer: The value was inactive: 3.51% [at 46.1 µM].

Question: With `O=C1N/C(=N/N=C/c2ccc(O)cc2)SC1Cc1ccccc1` (stereo unspecified) as the compound, how does the Potency read?
Answer: Its Potency is active: 1.46 µM.

Question: Which “activity change, negative = inhibition” value does the source give for `CCCOc1cccc(C2c3c(oc4ccc(F)cc4c3=O)C(=O)N2CCc2ccc(OC)cc2)c1` (stereo unspecified) here?
Answer: Its value is inactive: -10.9% [at 46.1 µM].

Question: Which “activity change, negative = inhibition” value does the source give for `CN(CC(=O)Nc1cccc(F)c1)C(=O)c1ccc2c(c1)S(=O)(=O)N=C1CCCCCN12` here?
Answer: Its value is inactive: 2.92%.

Question: With `Cc1ccccc1-c1nc(CS(=O)(=O)CC(=O)NCCCc2ccccc2)c(C)o1` as the compound, how does the “activity change, negative = inhibition” value read?
Answer: The value was inactive: 10.2% [at 46.1 µM].

Question: With `Cc1ccsc1/C=N/N1CCN(Cc2ccccc2)CC1` as the compound, how does the Potency read?
Answer: The Potency was inconclusive: 14.1 µM [activator, partial curve, poor fit].

Question: For `Cc1onc(-c2ccccc2)c1C(=O)Nc1nnc(C(C)(C)C)s1`, which “activity change, negative = inhibition” value is on record?
Answer: The value was inactive: -3.75% [at 46.1 µM].

Question: For `CCC(Sc1nnc2c3ccccc3n(CC)c2n1)C(=O)Nc1ccc(NC(C)=O)cc1` (stereo unspecified), which “activity change, negative = inhibition” value is on record?
Answer: Its value is inactive: -17.7% [at 46.1 µM].

Question: For `COc1ccc(-n2nc(C(=O)NCCc3ccc(OC)c(OC)c3)c3c4ccccc4n(C)c3c2=O)cc1`, which Potency is on record?
Answer: The Potency was inconclusive: 3.16 µM [inhibitor, single point].

Question: With `Nc1nc(Nc2ccccc2F)nc(NC2CCCCC2)c1[N+](=O)[O-]` as the compound, how does the Potency read?
Answer: The Potency was inconclusive: 5.62 µM [inhibitor, single point].

Question: With `O=C1C(Cl)=C(Nc2ccccc2)C(=O)c2ccccc21` as the compound, how does the Potency read?
Answer: The Potency was inconclusive: 12.6 µM [inhibitor, partial curve, poor fit].

Question: For `Cc1cccc(C(=O)N2[C@@H](C(C)C)COc3cc(Br)ccc3S2(=O)=O)c1`, which Potency is on record?
Answer: The Potency was inconclusive: 0.0056 µM [inhibitor, full curve, poor fit].

Question: For `COc1cccc(C2C(C(=O)Nc3ccccc3OC)=C(C)Nc3nc(-c4ccco4)nn32)c1` (stereo unspecified), which Potency is on record?
Answer: Its Potency is inconclusive: 35.5 µM [inhibitor, single point].

Question: For `COc1ccccc1CNC(=O)c1cnc2sc(N3CCCCC3)nn2c1=O`, which “activity change, negative = inhibition” value is on record?
Answer: The value was inactive: -10.8% [at 46.1 µM].

Question: Which Potency does the source give for `CN1CCC(Oc2ccccc2Sc2ccc(C(F)(F)F)cc2)CC1` here?
Answer: Its Potency is active: 11.6 µM.

Question: Which Potency does the source give for `N#C/C(=C\c1cccc2ccccc12)c1nn(-c2ccccc2)c(N)c1C#N` here?
Answer: Its Potency is inconclusive: 1.83 µM [inhibitor, partial curve, poor fit].

Question: With `CCOc1ccccc1N1CCN(C2=C(NS(=O)(=O)c3cccs3)C(=O)c3ccccc3C2=O)CC1` as the compound, how does the Potency read?
Answer: The Potency was inconclusive: 12.6 µM [inhibitor, partial curve, poor fit].

Question: For `COc1ccc(NC(=O)C2CC(=O)N(CCc3ccc(F)cc3)C2)c(OC)c1` (stereo unspecified), which Potency is on record?
Answer: The Potency was inconclusive: 8.91 µM [activator, full curve, poor fit].

Question: Which Potency does the source give for `CCc1ccc(NC(=O)Cn2c(=O)n(-c3ccccc3C)c(=O)c3c2c2cc(OC)ccc2n3C)cc1` here?
Answer: The Potency was inconclusive: 5.62 µM [inhibitor, single point].

Question: Which Potency does the source give for `COc1cc(O)cc(/C=C/c2ccccc2)c1` here?
Answer: Its Potency is inconclusive: 35.5 µM [inhibitor, single point].

Question: For `Cc1cc(C)c(-c2c(O)c3cccc4c3n(c2=O)CCC4)c(C)c1`, which Potency is on record?
Answer: The Potency was inconclusive: 0.562 µM [activator, full curve, poor fit].

Question: For `CC(=O)N1CCOc2cc(S(=O)(=O)NCc3ccccc3Cl)c(Cl)cc21`, which “activity change, negative = inhibition” value is on record?
Answer: The value was inactive: -21.7% [at 46.1 µM].

Question: For `Cc1nc(-c2ccc(F)cc2)sc1CCNC(=O)c1cccs1`, which “activity change, negative = inhibition” value is on record?
Answer: Its value is inactive: -3.03% [at 46.1 µM].

Question: Which Potency does the source give for `O=C1CCC(C(=O)N2CCCO2)CN1Cc1cccc(C(F)(F)F)c1` (stereo unspecified) here?
Answer: Its Potency is inconclusive: 35.5 µM [activator, single point].

Question: For `Fc1ccccc1CSc1ncnc2c1oc1ccccc12`, which Potency is on record?
Answer: Its Potency is inconclusive: 23.1 µM [inhibitor, partial curve, poor fit].

Question: For `O=C(CSc1ccccc1F)NC(=O)NCc1ccco1`, which “activity change, negative = inhibition” value is on record?
Answer: Its value is inactive: 13.5% [at 46.1 µM].

Question: With `CC(C)c1oc(=O)cc2c1[C@@H](O)[C@H]1OC(=O)[C@@]3(C)CC[C@@H](O)[C@@]2(C)C13` (stereo partly specified) as the compound, how does the Potency read?
Answer: The Potency was inconclusive: 9.2 µM [inhibitor, partial curve, poor fit].

Question: Which “activity change, negative = inhibition” value does the source give for `CNC(=S)N=Nc1c(O)[nH]c2ccccc12` here?
Answer: The value was inactive: 11.5%.

Question: For `O=C(COC(=O)c1ccc2ncsc2c1)Nc1ccc(OC(F)(F)F)cc1`, which “activity change, negative = inhibition” value is on record?
Answer: Its value is inactive: 0.845%.

Question: For `COC(=O)Cn1c(C(=O)N2CCCC2)cc2c1C[C@H]1CN(C(=O)c3ccccc3)[C@@](Cc3ccc(F)cc3)(C(=O)OC)[C@@H]21`, which “activity change, negative = inhibition” value is on record?
Answer: The value was inactive: -10%.

Question: For `Cc1ccc(-c2ccc(/C=C3\SC(N4CCOCC4)=NC3=O)o2)cc1`, which Potency is on record?
Answer: The Potency was inconclusive: 20 µM [inhibitor, single point].

Question: With `COc1ccc(COCC(O)CN2CCN(S(=O)(=O)c3ccc(C(C)C)cc3)CC2)cc1` (stereo unspecified) as the compound, how does the Potency read?
Answer: Its Potency is inconclusive: 5.01 µM [inhibitor, partial curve, poor fit].

Question: With `CC(C)C(=O)Nc1ccc([N+](=O)[O-])cc1Br` as the compound, how does the Potency read?
Answer: Its Potency is inconclusive: 6.51 µM [inhibitor, single point].

Question: Which Potency does the source give for `O=C(Nc1cccc(O)c1)c1ccc(C(F)(F)F)cc1` here?
Answer: Its Potency is inconclusive: 12.6 µM [inhibitor, partial curve, poor fit].

Question: For `N#C/C(=C\c1ccc(-c2ccc(S(=O)(=O)N3CCOCC3)cc2)o1)C(=O)NC1CC1`, which Potency is on record?
Answer: Its Potency is inconclusive: 0.708 µM [inhibitor, single point].

Question: Which “activity change, negative = inhibition” value does the source give for `Cc1ccc(C(=O)Nc2nccc(-c3cccs3)n2)cc1` here?
Answer: The value was inactive: -1.22%.

Question: For `CCC(C)(C)n1nnnc1C(c1ccc2ncccc2c1)N1CCN(c2nc3ccccc3s2)CC1` (stereo unspecified), which Potency is on record?
Answer: Its Potency is inconclusive: 29.1 µM [inhibitor, single point].

Question: Which “activity change, negative = inhibition” value does the source give for `CCCC(=O)Nc1ccc(-c2cn3cccnc3n2)cc1` here?
Answer: The value was inactive: -9.01%.

Question: For `N#Cc1cc([N+](=O)[O-])c2sc(C(N)=O)[n+]([O-])c2c1`, which Potency is on record?
Answer: Its Potency is inconclusive: 2.31 µM [inhibitor, partial curve].

Question: Which Potency does the source give for `CCOC(=O)C1(Cc2cccc(Cl)c2)CCCN(C(=O)c2cc(C)on2)C1` (stereo unspecified) here?
Answer: The Potency was inconclusive: 35.5 µM [inhibitor, single point].

Question: For `O=C(Cn1nc2ccccc2n1)N/N=C/c1cc(Cl)cc([N+](=O)[O-])c1O`, which “activity change, negative = inhibition” value is on record?
Answer: The value was inactive: -1.66% [at 46.1 µM].

Question: With `Cc1ccc2c(c1)cc1c(=O)n(Cc3ccccc3Cl)nc(C)n12` as the compound, how does the “activity change, negative = inhibition” value read?
Answer: Its value is inactive: -2% [at 46.1 µM].

Question: Which Potency does the source give for `Fc1ccc(-n2cc(-c3ccccc3)c3c(=S)nc[nH]c32)cc1` here?
Answer: Its Potency is active: 5.01 µM.

Question: For `Cc1ccc(C)c(N2CCN(C(=O)c3ccc(Cn4c(=O)[nH]c5ccccc5c4=O)cc3)CC2)c1`, which Potency is on record?
Answer: Its Potency is inconclusive: 29.1 µM [inhibitor, single point].

Question: With `CNC(=S)N/N=C/c1cc(C)n(-c2ccc(Cl)c(Cl)c2)c1C` as the compound, how does the Potency read?
Answer: Its Potency is inconclusive: 10.3 µM [inhibitor, partial curve, poor fit].

Question: With `Cc1ccc(C(C)n2cc(C(=O)NCc3cccnc3)nn2)cc1` (stereo unspecified) as the compound, how does the Potency read?
Answer: Its Potency is inconclusive: 0.0891 µM [inhibitor, full curve, poor fit].

Question: With `CCN(c1ccccc1)S(=O)(=O)c1nnc(NC(=O)C2CCCCC2)s1` as the compound, how does the “activity change, negative = inhibition” value read?
Answer: Its value is inactive: -9.82% [at 46.1 µM].

Question: For `O=C(Nc1ccc(Br)cc1)c1cc(S(=O)(=O)NC2CCCC2)ccc1F`, which Potency is on record?
Answer: The Potency was inconclusive: 35.5 µM [inhibitor, single point].

Question: With `Cc1cccn2c(=O)c3cc(C(=O)NC4CCCCC4)c(=N)n(Cc4ccc(F)cc4)c3nc12` as the compound, how does the Potency read?
Answer: The Potency was inconclusive: 35.5 µM [activator, single point].

Question: With `CC(=O)c1cccc(NC(=O)C(OC(=O)c2ccccc2NS(=O)(=O)c2cccs2)c2ccccc2)c1` (stereo unspecified) as the compound, how does the Potency read?
Answer: The Potency was inconclusive: 7.31 µM [activator, partial curve, poor fit].

Question: Which Potency does the source give for `Cc1ccc2c(C)c(C(=O)N(Cc3ccc(N(C)C)cc3)Cc3ccco3)oc2c1C` here?
Answer: The Potency was inconclusive: 10 µM [inhibitor, partial curve, poor fit].

Question: With `CC1CCN(CCOc2ccc(C(=O)c3ccccc3)cc2)CC1` as the compound, how does the “activity change, negative = inhibition” value read?
Answer: The value was inactive: -26.6%.

Question: For `COc1ccc(NC(=O)CN2C(=O)NC(c3ccccc3)(c3ccccc3)C2=O)cc1`, which Potency is on record?
Answer: Its Potency is inconclusive: 35.5 µM [inhibitor, single point].

Question: Which Potency does the source give for `CN(c1ccc(C(=O)N2CCCCCC2)cc1)S(=O)(=O)c1ccc(Cl)cc1` here?
Answer: The Potency was inconclusive: 14.1 µM [inhibitor, partial curve, poor fit].

Question: With `CC(C)Oc1ccc(C(=O)NCC(c2ccc(N(C)C)cc2)N2CCc3ccccc32)cc1` (stereo unspecified) as the compound, how does the Potency read?
Answer: Its Potency is inconclusive: 7.08 µM [inhibitor, full curve, poor fit].

Question: Which Potency does the source give for `Cc1ccc(-c2noc(-c3nnn(CC(=O)Nc4ccc(C)c(Cl)c4)c3N)n2)cc1` here?
Answer: Its Potency is inconclusive: 11.2 µM [activator, partial curve, poor fit].

Question: With `COc1ccc(C2=NN(C(=O)c3ccco3)C(c3ccco3)C2)cc1OC` (stereo unspecified) as the compound, how does the Potency read?
Answer: The Potency was inconclusive: 12.6 µM [inhibitor, partial curve, poor fit].

Question: For `CCOc1ccc(N(CC(=O)Nc2ccc(OC)cc2)S(=O)(=O)c2ccc(Cl)cc2)cc1`, which “activity change, negative = inhibition” value is on record?
Answer: Its value is inactive: -11.6% [at 46.1 µM].

Question: Which Potency does the source give for `NC(=O)c1ccccc1NC(=O)N1CCOCC1` here?
Answer: Its Potency is inconclusive: 0.631 µM [inhibitor, single point].

Question: Which “activity change, negative = inhibition” value does the source give for `CCN1CCN(C(c2ccccc2Cl)c2sc3nc(-c4ccco4)nn3c2O)CC1` (stereo unspecified) here?
Answer: The value was inactive: 5.57% [at 46.1 µM].

Question: With `O=C1NC(c2ccccc2)=C(c2ccc3ccccc3n2)C(c2ccncc2)N1` (stereo unspecified) as the compound, how does the “activity change, negative = inhibition” value read?
Answer: The value was inactive: -27%.

Question: For `O=C(CSc1ncccn1)NCc1ccccc1`, which Potency is on record?
Answer: The Potency was inconclusive: 16.4 µM [activator, partial curve].
